Reference: PubChem BioAssay AID504467 (National Center for Advancing Translational Sciences (NCATS), 2011)
Among all 330,000 compounds or so, about 7,700 (2.3%) were called active. Inconclusive means that the source gave no clear call. Such entries were picked first, then a sample of the others. Calls follow the shape of the dose curve; as a rule, active = well fitted inhibition curve with a large enough effect; inconclusive = small, poorly fitted or top-dose-only effect, or effect the other way; inactive = flat fitted curve, though single readings scatter. Where the call is inconclusive, the potency comes from a doubtful curve fit.

Assay: qHTS screen for small molecules that inhibit ELG1-dependent DNA repair in human embryonic kidney (HEK293T) cells expressing luciferase-tagged ELG1; also: nearly all actives have a fitted effect of over 55% in size
Conditions: HEK293T ELG1-luciferase reporter, luminescence, 16 h, DNA damage induced by 5-fluorouridine; activity change, negative = inhibition: at 46.1 µM (top of the series)
How it was run: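 5-Fluorouridine DNA damage + compound/DMSO, 2,000 cells/well, 16 h, 37 °C/5% CO2. ONE-Glo, 30 min RT, luminescence. Readout = decrease in reporter signal.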
% is scaled to controls: 0 for no effect and ±100 for the full control effect; potency is read from the fitted curve at half-maximal effect.

SMILES	Potency	activity change, negative = inhibition
Cc1noc(C)c1C(=O)Nc1nc(-c2cc(F)ccc2F)cs1	inconclusive: 14.6 µM [activator, partial curve]	
CC1CCN(C(=O)COC(=O)C23CC4CC(CC(O)(C4)C2)C3)CC1	inconclusive: 20.6 µM [activator, partial curve, poor fit]	
COc1ccc(OCC(O)CNC(=O)Nc2cccc3ccccc23)cc1 (stereo not drawn)	inconclusive: 20.6 µM [inhibitor, single point]	
O=C(/C=C/c1ccccc1[N+](=O)[O-])Nc1ccccc1	inconclusive: 2.31 µM [activator, full curve]	
CCOC(=O)c1c(NC(=O)CN2C(=O)NC3(CCCCC3C)C2=O)sc(C(=O)N(C)C)c1C (stereo not drawn)	inconclusive: 20.6 µM [inhibitor, partial curve, poor fit]	
O=C(COC(=O)c1cccc(C(F)(F)F)c1)NC(=O)NC1CCCC1	inconclusive: 25.9 µM [inhibitor, single point]	
COc1cccc(NC(=O)Nc2ccc3c(c2)N(C)C(=O)CS3)c1	inconclusive: 25.9 µM [inhibitor, single point]	
CC(C)c1ccccc1OCCNC(=O)c1cccnc1	inconclusive: 14.6 µM [inhibitor, partial curve]	
Fc1cccc(Cl)c1Cc1noc(/C=C/c2ccccc2)n1	inconclusive: 16.4 µM [activator, single point]	
O=C(Nc1ccccc1F)c1ccccc1-c1ccc(C(F)(F)F)cc1	inconclusive: 14.6 µM [activator, partial curve]	
COc1ccc2[nH]c3c(c2c1)CCN1C(=O)C(CC(=O)NCc2cccc(C(F)(F)F)c2)C[C@H](C(=O)N(C(C)C)C(C)C)[C@@]31C (stereo partly drawn)	inconclusive: 25.9 µM [inhibitor, partial curve, poor fit]	
CCOc1ccc(N=Nc2c(=O)[nH]n3c(C)cc(C)nc23)cc1		inactive: -3.45%
CCCn1nnc2sc3c(c2c1=O)CCC(C)C3 (stereo not drawn)	inconclusive: 14.6 µM [activator, partial curve]	
Cc1nn(Cc2c(F)c(F)c(F)c(F)c2F)c(C)c1NC(=O)c1c(-c2ccccc2)nn(-c2ccccc2)c1C	inconclusive: 6.51 µM [inhibitor, partial curve, poor fit]	
Cc1cc(Nc2ccc(C)c(Cl)c2)nc(N2CCOCC2)n1	active: 20.6 µM	
C/C(COc1ccccc1)=N\NC(=O)c1nnn(-c2nonc2N)c1CSc1ccccc1		inactive: 11.8%
Cc1cccc(NS(=O)(=O)c2ccc3nc(-c4ccccc4)[nH]c3c2)c1C		inactive: -11.9%
Cc1ccc(C)c(NC(=O)c2cc(-c3cc(C)c(C)cc3O)n[nH]2)c1	inconclusive: 5.8 µM [activator, partial curve]	
COc1ccccc1OCCCCn1ncc2ccc(OC)c(OC)c2c1=O		inactive: -0.196%
Cc1ccccc1-c1ocnc1C(=O)Nc1ccccc1NC(=O)c1ccccn1	inconclusive: 29.1 µM [inhibitor, single point]	
COC(=O)Cn1c(=O)c2c(nc3n2CCCN3CCc2ccccc2)n(C)c1=O	inconclusive: 20.6 µM [inhibitor, single point]	
Cc1ccc2oc(-c3ccc(C)c(NC(=O)Cc4cccs4)c3)nc2c1		inactive: -6.24%

Single values from above:
Potency, COc1cccc(NC(=O)Nc2ccc3c(c2)N(C)C(=O)CS3)c1 is entered as inconclusive: 25.9 µM [inhibitor, single point]
Potency, Cc1ccccc1-c1ocnc1C(=O)Nc1ccccc1NC(=O)c1ccccn1 is entered as inconclusive: 29.1 µM [inhibitor, single point]

Next part

SMILES	Potency	activity change, negative = inhibition
CC(C)(C)OC(=O)N[C@@H](Cc1ccccc1)c1nnc(S(=O)(=O)Cc2cccc(F)c2)o1	inconclusive: 11.6 µM [activator, single point]	
Cc1ccc(C)c(S(=O)(=O)NC(Cc2c[nH]c3ccccc23)C(=O)O)c1 (stereo not drawn)	inconclusive: 25.9 µM [inhibitor, partial curve, poor fit]	
Cc1nc(CC(=O)N2CCN(c3cccc(C)c3C)CC2)cs1	inconclusive: 35.5 µM [inhibitor, single point]	
CNC(=O)CO/N=C/c1ccc(N(C)C)cc1	inconclusive: 29.1 µM [activator, single point]	
CCc1noc(C)c1C(=O)NNC(=O)COc1ccc(C)cc1		inactive: -2.52%
c1ccc(Cc2nnc3sc(C4COc5ccccc5O4)nn23)cc1 (stereo not drawn)		inactive: -8.71%
O=C1CCC(C(=O)OCC(=O)c2c[nH]c3ccccc23)=NN1	inconclusive: 29.1 µM [activator, single point]	
CCCc1nn(C)c(C(=O)Nc2ccc3ccccc3c2)c1Cl	inconclusive: 18.4 µM [activator, partial curve]	
Cc1occc1C(=O)Nc1ccc(S(N)(=O)=O)cc1		inactive: 6.44%
OCCN1CCN(CC/C=C2/c3ccccc3Sc3ccc(Cl)cc32)CC1		inactive: 11.5%
CCn1c(=S)[nH]c2cc(S(=O)(=O)N3CCOCC3)ccc21	inconclusive: 18.3 µM [activator, partial curve]	
Oc1ccc(Br)cc1-c1cc(-c2ccccc2Cl)[nH]n1	inconclusive: 23.1 µM [inhibitor, single point]	
Cc1cc(C)c(C)c(OCC(=O)O/N=C(\N)c2ccccn2)c1	inconclusive: 20.6 µM [activator, single point]	
COc1ccc(CCn2c(=O)c3cccnc3n(Cc3cccc([N+](=O)[O-])c3)c2=O)cc1OC		inactive: 7.64%
CC1CCCCC1NC(=O)CCn1ccc2cc(S(=O)(=O)N3CCCC3)ccc21 (stereo not drawn)		inactive: 4.82%
COc1ccc(CCNC(=O)c2ccc(CS(=O)(=O)c3ccc(Br)cc3)o2)cc1OC	inconclusive: 18.3 µM [inhibitor, single point]	
O=C(Nc1nnc(C2CC2)s1)C1CCCCC1	inconclusive: 31.6 µM [activator, single point]	
CCOC(=O)N/N=C\c1cccc(OC)c1	inconclusive: 29.1 µM [activator, single point]	
C=CCSc1nc(N)c2c3c(sc2n1)CN(C)CC3	inconclusive: 18.3 µM [activator, single point]	
CCn1nnc(NC(=O)c2ccc(-c3ccc(Cl)cc3)o2)n1	inconclusive: 10.3 µM [activator, partial curve]	
C=CCN(CC=C)C(=O)CN1C(=O)c2ccccc2C1=O	inconclusive: 1.16 µM [activator, single point]	
